The assay deals with FLAG-SCOC (isoform 3) (human) (UniProt Q9UIL1). As to the kind of experiment: co-IP; FLAG IP of FLAG-tagged SCOC with Anti-FLAG-M2 affinity agarose (Supplementary Figure 3A).

Protein sequences, listed by entry. Tags and fused reporters are not part of them. Lines headed by an entry give the natural chain unless they say otherwise; changes in a name come on top. Chains listed by the source or under a name are the forms on record and can include a tag or linker.
FLAG-SCOC (isoform 3) (Q9UIL1, form named): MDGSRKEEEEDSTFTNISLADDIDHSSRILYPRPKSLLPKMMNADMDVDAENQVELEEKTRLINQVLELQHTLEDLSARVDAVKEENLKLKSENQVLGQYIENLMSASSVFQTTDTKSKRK

These are yes or no findings as the source states them, for the method shown. In cells and extracts the contact can be indirect. Some results given as binding are weak or reduced against the parent protein; the word gives no strength. Where a sequence is shown, tags or fusion partners need not be part of it.

B1: FEZ2 (FLAG IP of Supplementary Figure 3A) (protein, UniProt Q9UHY8 1-353)
chain: MAADGDWQDFYEFQEPARSLLDQENCNASPEPGAEAGAEAGGGADGFPAPACSLEEKLSLCFRPSDPGAEPPRTAVRPITERSLLQGDEIWNALTDNYGNVMPVDWKSSHTRTLHLLTLNLSEKGVSDSLLFDTSDDEELREQLDMHSIIVSCVNDEPLFTADQVIEEIEEMMQESPDPEDDETPTQSDRLSMLSQEIQTLKRSSTGSYEERVKRLSVSELNEILEEIETAIKEYSEELVQQLALRDELEFEKEVKNSFISVLIEVQNKQKEHKETAKKKKKLKNGSSQNGKNERSHMPGTYLTTVIPYEKKNGPPSVEDLQILTKILRAMKEDSEKVPSLLTDYILKVLCPT
Take B1: the binding result is recorded as “binds”.

The values are drawn from PMC8202330, “Phosphorylation of the LIR Domain of SCOC Modulates ATG8 Binding Affinity and Specificity” (Journal of Molecular Biology, 2021).
